{"source": "paper PMC6016461", "target": "T1, Strep-tagged NifW (A. vinelandii) (UniProt P14888)", "T1 sequence": "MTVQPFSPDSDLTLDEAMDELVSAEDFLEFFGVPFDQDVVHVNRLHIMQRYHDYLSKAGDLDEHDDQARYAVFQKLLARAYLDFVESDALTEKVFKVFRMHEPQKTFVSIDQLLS", "experiment": "pull-down; purified Strep-tagged NafY, NifY or NifW immobilised on Strep-Tactin XT resin; A. vinelandii cell-free extract (MoFe protein without Strep-tag) passed over; anoxic buffer C (50 mM Tris-HCl pH 7.9, 2 mM Na2S2O4, 350 mM NaCl), 10 column volumes wash; eluted with 50 mM biotin; SDS-PAGE; some samples further run on Superose 12 to remove excess bait; only the target purified", "note": "Results are given in words; binding and its absence hold for the method and conditions named. In cells and extracts the contact can be indirect. Tags and fused reporters may be left off the sequences shown.", "data": [{"substance": "NafH (A. vinelandii)", "values": [{"measurement": "binding", "result": "no binding"}]}]}
